Hit rate of the full screen: of about 31,000 sequences, about 1,400 (4.5%) were called active.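 How the source made its calls: active means median seed-adjusted z-score above 1 or below -1; inactive means the rest.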 This is one part of the list.

The assay in a line: Novel Modifiers of Survival Motor Neuron (SMN) Protein: Gene Identification via Genome-wide siRNA Screen. Particulars: HEK293T SMN2-luciferase reporter, siRNA knockdown, 72 h; actives lie on both sides. The procedure, abridged:
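Each of three siRNAs per gene is reverse-transfected (1 pmol) into reporter HEK293T cells whose luciferase output tracks SMN protein level. After 72 h culture, ONE-Glo luminescence is control-normalized, log10-transformed and MAD-standardized; Common Seed Analysis deprioritizes seed-driven hits.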
(In general: In a reporter assay the amount or activity of a reporter protein is the signal.)
AUACCAACGAGUCAACAAATT against TMED10: the median seed-adjusted z-score was inactive: 0.523.

Regarding CAGACAAGAUUGAACGGAUTT against LRP1, the median seed-adjusted z-score is inactive: -0.781. Regarding GCAUAUUGCUUGCUAUUAATT against TPST2, the median seed-adjusted z-score was inactive: -0.682.

For CUCACAUCCUAGACCAGUATT against CBS, the median seed-adjusted z-score was inactive: -0.0696. For the sequence GGAUACAAUCUUUGAUAUATT against ZNF583, the median seed-adjusted z-score was inactive: -0.225.

As for GCCUUGCAGGAAAUUCGAATT against LATS1, the median seed-adjusted z-score was inactive: 0. The result for CCAAGAUAUUGUAUACAAATT against BMI1 reads inactive: 0.

Consider CGAGACCUUUGACCCUCGATT against DBP, for which the median seed-adjusted z-score was inactive: -0.115. As to GUCAUAACCUCACCUUAUATT against TUBE1, the median seed-adjusted z-score was inactive: -0.00933.

On to CAGGAUCAAUCGAAAGAUUTT against IRAK2, for which the median seed-adjusted z-score was inactive: -0.06. For GGCUCAAUCGUGAACUUCATT against CLTCL1 the value was inactive: 0.341. For CACCCUGCAGGUUCCCAUATT against HSD17B14, the median seed-adjusted z-score is inactive: 0.386.

As for GCAGAGAUUUCCAAGAAAATT against GPR32, the median seed-adjusted z-score was active: -1.2. For GCAGGAUCAGAAGCCUAUUTT against NR3C1 the value was inactive: -0.47; for GGUAGUGAAUAACAAUGGATT against HACL1, inactive: -0.0664; for GGAUGAGAAGAGAUCAGCATT against AKAP5, inactive: 0.0592. For GCAGAGCGGAGUUCUUUAUTT against PHOX2A the value was inactive: 0.466; for AGAUAGUUCUGGAACUGGATT against HES2, inactive: -0.186.

On to GGGAGGUAUUGGUUUCAUUTT against IMPDH1, for which the median seed-adjusted z-score is inactive: 0.558. The result for GAGAAAUGCUUGGAGUCCATT against FKBPL reads active: -1.11; that for CAAACGGGCUCAUCAUAAUTT against MAX, inactive: 0.0949; that for GAAACAAACUGAUGAUAAUTT against TCEAL1, inactive: -0.263. The result for CAAGAGUUAUGGUCUGGGATT against GCM1 reads inactive: 0.0197; that for GCACGGACUUACACCUAUUTT against NR5A2, inactive: -0.275; that for GAGUGUUCAGCAAACCGUATT against MED20, active: -1.66.

With GGACCCAAUCAACUCAAUATT against SS18, the median seed-adjusted z-score was inactive: 0.34. For GAACCUCAGUUGAGUAUUUTT against RPE the value was inactive: 0.616; for CCUUCUAAGCAGACCCUUUTT against ZNF776, inactive: -0.394. The result for GAUCUGUGAUGAGAACGGATT against VWF reads inactive: 0.159. For GCGAAUACCUGAUAGCACATT against RIMS2 the value was inactive: 0.534. As for GCCUAUCGAUGGGUAGCAATT against NDUFA9, the median seed-adjusted z-score was inactive: -0.325. On to GCGAAUUGCUAGAUGUUUATT against RAB11FIP4, for which the median seed-adjusted z-score was inactive: 0.249.

As to GCGAUUGUCUGGAUAAACUTT against EYA2, the median seed-adjusted z-score was inactive: 0.111. The result for CAGACACCUUCAUACCUUATT against BHMT reads inactive: 0; that for CACUGAUCAUGACAACCAATT against POLS, inactive: -0.334; that for GCCUCAUGCUAGACAACAATT against MFHAS1, inactive: -0.267. For CAUCUGGAAGGAACCCUUUTT against ALDH3B2 the value was inactive: 0.171.

As to GAUUGUCAAUGGGUGUAUUTT against AOF1, the median seed-adjusted z-score is inactive: -0.211. For UCACCAUGGUUUACACUGUTT against KCNJ5 the value was inactive: 0.0644; for GCUCGUAACUUCCUCGUUUTT against SMC1A, inactive: -0.362; for GUACCUUCCCUGAUCAUCATT against ZNF689, inactive: 0.448. The result for AGCAUGUUCUUACUGCUCATT against NCR1 reads inactive: -0.26; that for GGUGCAUAGCUAUCCGUAUTT against IARS2, inactive: -0.404. For CAAUGAUCAUGGACCGUUUTT against CPEB3 the value was inactive: 0.086; for GAUGAGACUUUGACUAUAATT against FGD6, inactive: 0.536; for GCUUCGGCUUAUUAACCAATT against MAP2, inactive: 0.238.

Turning to CCCUCUACCUCGUCCGAAUTT against SIRPA, the median seed-adjusted z-score was inactive: -0.153. The result for CCGUGGACUAUAUCCGAAATT against MITF reads inactive: -0.249; that for CGAGGAGACCUGACAUGUUTT against ABCG4, inactive: -0.439. As for CGUCACCUUCCUUAAGAUUTT against ADORA1, the median seed-adjusted z-score was inactive: 0.022.

For the sequence GGUCUUCUGCGAUCAGUUATT against S100A3, the median seed-adjusted z-score is inactive: -0.176.

Take GGAAGUUACUUACCGGGAATT against ATP5F1: the median seed-adjusted z-score was inactive: -0.323. For CGGUGCAUUUGUUCAAGGATT against SHOX the value was inactive: 0.316. As to UGCUGAUGACAGUCAUUUATT against CYP2S1, the median seed-adjusted z-score is inactive: -0.196. For CAACCAACAUUUACAUAUUTT against OPRK1 the value was active: -1.08.

For the sequence CCGAAUGAAUGGUGAUAAATT against TUSC3, the median seed-adjusted z-score is inactive: 0.138.

On to GAAUGAAGCACGUCAAGAATT against SCO1, for which the median seed-adjusted z-score was inactive: -0.251. For UGCACACCUUGGACCAUGATT against SGCA the value was inactive: 0.144; for CGUGGUCUUUGAGCAGUUUTT against ABP1, inactive: -0.241; for GAACUAACUACAUAUGAAATT against OGFRL1, inactive: 0.0339. For AUAUCCUAAUAGGAAUUAATT against ATP5J2 the value was inactive: 0.00511; for CCAAUGGUCUACUUGGUUATT against OLA1, inactive: -0.408. For CAGCUGGGCUGGACAUAUUTT against CLIC1 the value was inactive: 0.288. For the sequence AGCGGGUGGUGAAACUCUATT against PLXNA1, the median seed-adjusted z-score was inactive: 0.

Take GGACGGAUCUACAUCAUCATT against TSSK2: the median seed-adjusted z-score was inactive: -0.064. The result for GCACUAAUGUGAUCGUUGATT against MMP8 reads inactive: -0.781.

With GCCUCUAUUUGAUAAGCGATT against NAP1L1, the median seed-adjusted z-score is inactive: 0.263. The result for CAGGAUAUGUACUAAGCAATT against C1GALT1 reads inactive: -0.394. For ACACUGCCUUGAUAACAUATT against HSPB6 the value was inactive: 0.394.

The values are drawn from PubChem BioAssay AID1347426 (Functional Genomics Laboratory (NCATS/FGL), 2020).
